This is one part of the list. Further columns of the screen follow, without active or inactive calls. Compounds called inactive in the main read-out are mostly missing here. Potencies come from curve fits of mixed quality, noted in brackets.
Assay: qHTS Assay for Lipid Storage Modulators in Drosophila S3 Cells;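 for cell number change: cells counted by Cell Tracker Red CMTPX staining in the red channel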
Settings: BODIPY lipid droplet fluorescence, 18-24 h; for cell number change: measured here: cell count max response, cells fed with added oleic acid
Procedure, shortened: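 Laser-scanning cytometry quantifies lipid droplet accumulation (500–530 nm total intensity; droplet/cell object ratio) in oleic acid-fed (400 uM added) Drosophila S3 cells treated with a concentration series. 20 uM Triacsin C defined 100% inhibition.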

[1] = measured here: cell number channel AC50, cells fed with added oleic acid
[2] = measured here: lipid fluorescence (Fed channel) AC50, cells fed with added oleic acid

| Compound | AC50 [1] | cell number change [%] | AC50 [2] |
| --- | --- | --- | --- |
| COP(=O)(OC)c1nc(-c2cccc3ccccc23)oc1NCCc1ccccc1 | 32.6 µM [falling, single point] | – | – |
| O=C1NC(=O)C(=Cc2ccc(Sc3ccccc3)o2)C(=O)N1 | 32.6 µM [falling, single point] | -58.9 | 29.1 µM [falling, single point] |
| Clc1ccc(C2N3CCCN23)c(Cl)c1 (stereo unspecified) | – | 27.8 | 0.259 µM [rising, full curve] |
| COC(=O)Nc1ccc(N=C(N)N[N+](=O)[O-])cc1 | 6.51 µM [falling, single point] | -8.41 | – |
| O=C(NCc1ccc(C(=O)N2CCC3(CC2)OCCO3)cc1)c1cccc(Br)c1 | – | 10.6 | 4.11 µM [rising, full curve, poor fit] |
| COc1ccccc1OC(=O)c1ccc(C)c(S(=O)(=O)N2CCOCC2)c1 | – | 17.9 | 0.58 µM [rising, single point] |
| OC(CN1CCCCC1)c1c[nH]c2ccccc12 (stereo unspecified) | 0.206 µM [falling, full curve, poor fit] | -6.31 | – |
| O=C(Nc1ccc(F)c([N+](=O)[O-])c1)N1C[C@H]2C[C@@H](C1)c1cccc(=O)n1C2 | – | -15.9 | – |
| COC(=O)NC(=C(Cl)Cl)P(=O)(c1ccccc1)c1ccccc1 | – | -14.7 | 0.651 µM [falling, full curve] |
| Cc1ccc(C)c(NC(=S)NCCc2cnc[nH]2)c1 | – | 24.4 | 18.4 µM [rising, single point] |
| COC(=O)C1=C(c2ccc(F)cc2F)C[C@@H]2CC[C@H]1N2C(=O)NCCOc1ccc(OC)cc1 | 32.6 µM [falling, single point] | -39.5 | 29.1 µM [falling, single point] |
| O=C1NC(=O)C(=Cc2ccc(-c3ccc(Cl)cc3)o2)C(=O)N1 | 0.00651 µM [falling, full curve, poor fit] | -34.4 | – |
| C=CCn1c(O)c(C(C)=Nc2cccc(C(=O)O)c2)c(=O)[nH]c1=O | 32.6 µM [falling, single point] | -30.4 | 23.1 µM [falling, single point] |
| O=c1oc2ccccc2n1Cc1cccc(Cl)c1 | 29.1 µM [falling, single point] | – | – |
| O=C(c1ccc(F)cc1Cl)N1CCC2(CC1)OCCO2 | – | 13.5 | 18.4 µM [rising, single point] |
| COc1cc(Cn2c(N)c(C(=O)NCc3ccco3)c3nc4ccccc4nc32)cc(OC)c1OC | – | -33.2 | – |
| COC(=O)C1=C(c2cccc(C#N)c2)C[C@@H]2CC[C@H]1N2C(=O)NCCCOC(C)C | – | 15.3 | 23.1 µM [rising, single point] |
| CC(Cc1ccccc1Sc1ccccc1O)N(C)C (stereo unspecified) | 16.4 µM [falling, single point] | -72.6 | – |
| CN(C)C(=O)Nc1cccc(OC(=O)N(C)C)c1 | – | – | 0.651 µM [falling, single point] |
| CC/C(=N\N1CCCCC1)c1c(O)[nH]c(=O)[nH]c1=O | – | -45.2 | 4.61 µM [falling, partial curve] |

| Compound | AC50 [1] | cell number change [%] | AC50 [2] |
| --- | --- | --- | --- |
| COc1nc(NC(C)C)nc(NC(C)C)n1 | 32.6 µM [rising, single point] | 52.2 | 18.4 µM [rising, partial curve] |
| CCCC(=O)NC(Oc1ccc(C(C)=O)cc1)C(Cl)(Cl)Cl (stereo unspecified) | 0.116 µM [falling, full curve, poor fit] | -24.5 | 0.651 µM [falling, full curve] |
| Nc1cc(N2CCNCC2)c([N+](=O)[O-])cc1Cl | 0.00517 µM [falling, full curve, poor fit] | -22 | – |
| COc1ccccc1CC(=O)N1CCN(CCc2ccccc2)CC1 | – | -3.3 | 1.3 µM [rising, full curve] |
| Cc1cccc(NC(=O)C(C)N2CC=C(c3ccccc3)CC2)c1 (stereo unspecified) | – | – | 29.1 µM [rising, single point] |
| COc1ccc(CCNCc2ccsc2)cc1OC | – | 4.76 | 0.461 µM [falling, single point] |
| CCCn1ncc(C(=O)O)c1C | – | -8.97 | 29.1 µM [falling, single point] |
| C[N+]1(C)[C@@H]2CC[C@H]1CC(OC(=O)[C@@H](CO)c1ccccc1)C2 (stereo partly specified) | – | 19.8 | – |
| CC(C)CNP(=S)(c1ccccc1)C(C)(C)C (stereo unspecified) | 1.64 µM [falling, partial curve, poor fit] | -12.1 | – |
| C=CCN1CCc2cccc3c2[C@H]1Cc1ccc(O)c(O)c1-3 | – | 1.35 | – |
| CC(c1ccccc1)[n+]1ccccc1 (stereo unspecified) | 6.51 µM [falling, single point] | 3.3 | – |
| O=C1NC(=O)C(=Cc2ccc(-c3ccccc3[N+](=O)[O-])o2)C(=O)N1 | 29.1 µM [falling, single point] | -43.1 | 5.17 µM [falling, partial curve] |
| CC(C)(C)OC(=O)c1c(N)n(Cc2ccco2)c2nc3ccccc3nc12 | 0.517 µM [rising, full curve] | 19.2 | 0.164 µM [rising, full curve, poor fit] |
| c1ccc2nc(OCCN3CC3)ccc2c1 | 2.59 µM [rising, full curve, poor fit] | 23 | – |
| O=P(OCC(F)(F)C(F)F)(N1CCCCC1)N1CCCCC1 | – | -27.8 | 18.4 µM [falling, partial curve] |
| CC(=O)Nc1nc(CCl)cs1 | 0.0164 µM [rising, full curve, poor fit] | – | 0.0103 µM [rising, full curve, poor fit] |
| CCOc1ccc(C(Nc2ccc(C)cc2)P2(=O)OCCCO2)cc1 (stereo unspecified) | 0.651 µM [falling, full curve, poor fit] | – | – |
| COC(=O)C1=C(c2ccc(F)cc2F)C[C@@H]2CC[C@H]1N2C(=O)NCCOc1ccccc1 | – | -3.01 | 0.092 µM [rising, full curve, poor fit] |
| Cc1cc(OC(=O)N(C)C)nc(-c2ccc(C)c(Cl)c2)n1 | – | 13.7 | 10.3 µM [rising, partial curve, poor fit] |

Single records (already shown).
Nc1cc(N2CCNCC2)c([N+](=O)[O-])cc1Cl reads AC50 [1]: 0.00517 µM [falling, full curve, poor fit]; cell number change [%]: -22
CCOc1ccc(C(Nc2ccc(C)cc2)P2(=O)OCCCO2)cc1 (stereo unspecified) reads AC50 [1]: 0.651 µM [falling, full curve, poor fit]

Source: PubChem BioAssay AID2685 (National Center for Advancing Translational Sciences (NCATS), 2010)
